The list shows a part of the results. These are further read-outs of the screen, such as a control signal, another cell line or another target. No call is given for them. Most of these compounds were active or inconclusive in the main read-out, so they are no random draw. Words in brackets tell the shape of the fitted curve; partial curves, single points and poor fits give uncertain potencies.

This assay can be described thus: qHTS Assay to Find Inhibitors of Chronic Active B-Cell Receptor Signaling. To be noted: ABC-DLBCL IkBa-CBG/CBR reporter, luminescence ratio (green luciferase fused to IkBa over red control in TMD8 lymphoma cells), 4 h. The method in brief: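 TMD8 ABC-DLBCL cells carrying doxycycline-inducible green luciferase fused to IkappaBalpha plus unfused red luciferase were exposed to compounds (up to 46 uM) for 4 hrs at 37C. Activity came from the overlap-corrected green/red luminescence ratio.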
In general terms: qHTS replaces the single test concentration by a dilution series.

Where [1] appears, read: measured here: CBR red luminescence, cell number.

The AC50 is the midpoint of the concentration-response curve, whichever way the signal moves. Take `CCCn1nnc(NC(=S)NC(=O)c2cccs2)n1`: the AC50 under setting [1] was 29.1 µM [falling, single point]. Same read-out and setting: in the case of `O=C1N=C(N2CCCCC2)S/C1=C/C1=Cc2ccccc2OC1` it was 0.708 µM [falling, partial curve, poor fit]; in that of `CCOC(=O)Cc1csc(NC(=O)c2cc(=O)c3ccccc3o2)n1`, 11.2 µM [falling, partial curve]. Consider `CCC/C(=N/NC(=O)c1ccccc1Cl)c1ccccc1`, for which, under setting [1], the half-maximal activity concentration (AC50) is 14.1 µM [falling, partial curve, poor fit].

As for `CS(=O)(=O)c1ccccc1-c1nnc(-c2ccc(Cl)cc2)o1`, the AC50 under setting [1] is 11.2 µM [rising, partial curve, poor fit].

In the case of `C/C(=N\Nc1cccc(C(=O)O)c1)c1cc2ccccc2o1`, under setting [1], the AC50 is 12.6 µM [falling, partial curve]. The same measure, in the same setting: then `O=C(Nc1ccc(Br)cc1Cl)N1CCOCC1`, with 20 µM [rising, partial curve, poor fit]; and `CC(=O)Nc1ccc2nc(NC(=O)c3ccc([N+](=O)[O-])s3)sc2c1`, with 22.4 µM [falling, single point]. For `Cc1ccc2c(c1)N(CC(=O)OCC(=O)NCc1ccccc1)C(=O)CO2`, the AC50 under setting [1] was 17.8 µM [rising, partial curve, poor fit]. For the molecule `COCCSc1nnc(NC(=O)CCS(=O)(=O)Cc2ccccc2)s1`, the AC50 under setting [1] was 10 µM [falling, partial curve]. Consider `O=S(=O)(NCc1ccccc1)NCc1cccc(C(F)(F)F)c1`, for which the AC50 under setting [1] is 12.6 µM [rising, partial curve, poor fit].

In the case of `CNC(=S)N(Cc1cccs1)Cc1cc2cc(OC)c(OC)cc2[nH]c1=O`, under setting [1], the half-maximal activity concentration (AC50) was 25.9 µM [rising, single point]. Still for that read-out and setting: then `COc1cccc(N2CC(C)Cn3c2nc2c3c(=O)[nH]c(=O)n2C)c1` (stereo not given), with 6.31 µM [rising, full curve, poor fit]; and `CCC(C)C(=O)OCC1(c2ccc(C)cc2OC(=O)C(C)C)CO1` (stereo not given), with 35.5 µM [falling, single point]; and `COC(=O)c1ccccc1NC(=O)COc1ccccc1[N+](=O)[O-]`, with 1.26 µM [falling, partial curve, poor fit]. With `Cc1ccc(-c2nc3ncccn3c2NC2CCCCC2)o1`, the AC50 under setting [1] was 0.146 µM [falling, partial curve, poor fit].

Take `COc1cc(NC(=O)c2cccc(Cl)c2)ccc1NC(=O)c1cccs1`: the AC50 under setting [1] is 8.91 µM [rising, single point]. On the same count and under the same terms, then `CCc1ccccc1OCCCOc1ccc(OC)cc1`, with 5.62 µM [rising, single point]. On to `COc1ccc2[nH]c(=O)c(C3c4cc(OC)c(OC)cc4CCN3C(=O)c3ccco3)cc2c1` (stereo not given), for which the AC50 was 0.631 µM [rising, full curve, poor fit] under setting [1] and 3.98 µM [falling, partial curve, poor fit] (measured here: IkBa-CBG green luminescence).

(Values after PubChem BioAssay AID493014 (National Center for Advancing Translational Sciences (NCATS), 2011).)
